Values of other authors as cited in patent US20040067963A1, “Methods to prevent or ameliorate trauma-related psychological disorders” (University of Florida, priority 2002, published 2004).
Some entries share one result that the patent states for a list of compounds.

Test system: patients with PTSD and comorbid depression
Details: 72 patients, after at least 1 month of medication

| Compound | response rate |
| --- | --- |
| CN(C)CCC=C1c2ccccc2CCc2ccccc21 [amitriptyline] | less than 10% |
| CC(NC(C)(C)C)C(=O)c1cccc(Cl)c1 (stereo not drawn) [bupropion] | less than 10% |
| CNCCCN1c2ccccc2CCc2ccccc21 [desipramine] | less than 10% |
| CNCCC(Oc1ccc(C(F)(F)F)cc1)c1ccccc1 (stereo not drawn) [fluoxetine] | greater than 30% |
| CN(C)CCCN1c2ccccc2CCc2ccccc21 [imipramine] | greater than 30% |
| CN[C@H]1CC[C@@H](c2ccc(Cl)c(Cl)c2)c2ccccc21 [sertraline] | greater than 30% |
